Measurements reported in paper PMC11297269.
No constants are given. Whether binding was seen depends on the method and setting. In cells and extracts the contact can be indirect. These calls come from enrichment with a bait or labelling near it, and not all partners need be listed.

By UniProt entry, the sequences of proteins in these tests, tags left out.
UniProt P07355: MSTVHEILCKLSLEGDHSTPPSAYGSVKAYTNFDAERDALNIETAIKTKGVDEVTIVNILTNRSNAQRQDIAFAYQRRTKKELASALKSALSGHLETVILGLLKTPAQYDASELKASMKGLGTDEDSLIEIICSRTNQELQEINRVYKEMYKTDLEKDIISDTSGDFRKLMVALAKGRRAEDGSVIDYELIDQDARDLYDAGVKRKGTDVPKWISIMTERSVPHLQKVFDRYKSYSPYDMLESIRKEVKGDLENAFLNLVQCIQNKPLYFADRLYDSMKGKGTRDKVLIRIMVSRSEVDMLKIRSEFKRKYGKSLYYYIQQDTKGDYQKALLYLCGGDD
UniProt P60903: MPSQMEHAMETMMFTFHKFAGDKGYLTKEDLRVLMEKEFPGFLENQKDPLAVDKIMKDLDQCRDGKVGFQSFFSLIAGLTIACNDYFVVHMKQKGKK
UniProt Q09666: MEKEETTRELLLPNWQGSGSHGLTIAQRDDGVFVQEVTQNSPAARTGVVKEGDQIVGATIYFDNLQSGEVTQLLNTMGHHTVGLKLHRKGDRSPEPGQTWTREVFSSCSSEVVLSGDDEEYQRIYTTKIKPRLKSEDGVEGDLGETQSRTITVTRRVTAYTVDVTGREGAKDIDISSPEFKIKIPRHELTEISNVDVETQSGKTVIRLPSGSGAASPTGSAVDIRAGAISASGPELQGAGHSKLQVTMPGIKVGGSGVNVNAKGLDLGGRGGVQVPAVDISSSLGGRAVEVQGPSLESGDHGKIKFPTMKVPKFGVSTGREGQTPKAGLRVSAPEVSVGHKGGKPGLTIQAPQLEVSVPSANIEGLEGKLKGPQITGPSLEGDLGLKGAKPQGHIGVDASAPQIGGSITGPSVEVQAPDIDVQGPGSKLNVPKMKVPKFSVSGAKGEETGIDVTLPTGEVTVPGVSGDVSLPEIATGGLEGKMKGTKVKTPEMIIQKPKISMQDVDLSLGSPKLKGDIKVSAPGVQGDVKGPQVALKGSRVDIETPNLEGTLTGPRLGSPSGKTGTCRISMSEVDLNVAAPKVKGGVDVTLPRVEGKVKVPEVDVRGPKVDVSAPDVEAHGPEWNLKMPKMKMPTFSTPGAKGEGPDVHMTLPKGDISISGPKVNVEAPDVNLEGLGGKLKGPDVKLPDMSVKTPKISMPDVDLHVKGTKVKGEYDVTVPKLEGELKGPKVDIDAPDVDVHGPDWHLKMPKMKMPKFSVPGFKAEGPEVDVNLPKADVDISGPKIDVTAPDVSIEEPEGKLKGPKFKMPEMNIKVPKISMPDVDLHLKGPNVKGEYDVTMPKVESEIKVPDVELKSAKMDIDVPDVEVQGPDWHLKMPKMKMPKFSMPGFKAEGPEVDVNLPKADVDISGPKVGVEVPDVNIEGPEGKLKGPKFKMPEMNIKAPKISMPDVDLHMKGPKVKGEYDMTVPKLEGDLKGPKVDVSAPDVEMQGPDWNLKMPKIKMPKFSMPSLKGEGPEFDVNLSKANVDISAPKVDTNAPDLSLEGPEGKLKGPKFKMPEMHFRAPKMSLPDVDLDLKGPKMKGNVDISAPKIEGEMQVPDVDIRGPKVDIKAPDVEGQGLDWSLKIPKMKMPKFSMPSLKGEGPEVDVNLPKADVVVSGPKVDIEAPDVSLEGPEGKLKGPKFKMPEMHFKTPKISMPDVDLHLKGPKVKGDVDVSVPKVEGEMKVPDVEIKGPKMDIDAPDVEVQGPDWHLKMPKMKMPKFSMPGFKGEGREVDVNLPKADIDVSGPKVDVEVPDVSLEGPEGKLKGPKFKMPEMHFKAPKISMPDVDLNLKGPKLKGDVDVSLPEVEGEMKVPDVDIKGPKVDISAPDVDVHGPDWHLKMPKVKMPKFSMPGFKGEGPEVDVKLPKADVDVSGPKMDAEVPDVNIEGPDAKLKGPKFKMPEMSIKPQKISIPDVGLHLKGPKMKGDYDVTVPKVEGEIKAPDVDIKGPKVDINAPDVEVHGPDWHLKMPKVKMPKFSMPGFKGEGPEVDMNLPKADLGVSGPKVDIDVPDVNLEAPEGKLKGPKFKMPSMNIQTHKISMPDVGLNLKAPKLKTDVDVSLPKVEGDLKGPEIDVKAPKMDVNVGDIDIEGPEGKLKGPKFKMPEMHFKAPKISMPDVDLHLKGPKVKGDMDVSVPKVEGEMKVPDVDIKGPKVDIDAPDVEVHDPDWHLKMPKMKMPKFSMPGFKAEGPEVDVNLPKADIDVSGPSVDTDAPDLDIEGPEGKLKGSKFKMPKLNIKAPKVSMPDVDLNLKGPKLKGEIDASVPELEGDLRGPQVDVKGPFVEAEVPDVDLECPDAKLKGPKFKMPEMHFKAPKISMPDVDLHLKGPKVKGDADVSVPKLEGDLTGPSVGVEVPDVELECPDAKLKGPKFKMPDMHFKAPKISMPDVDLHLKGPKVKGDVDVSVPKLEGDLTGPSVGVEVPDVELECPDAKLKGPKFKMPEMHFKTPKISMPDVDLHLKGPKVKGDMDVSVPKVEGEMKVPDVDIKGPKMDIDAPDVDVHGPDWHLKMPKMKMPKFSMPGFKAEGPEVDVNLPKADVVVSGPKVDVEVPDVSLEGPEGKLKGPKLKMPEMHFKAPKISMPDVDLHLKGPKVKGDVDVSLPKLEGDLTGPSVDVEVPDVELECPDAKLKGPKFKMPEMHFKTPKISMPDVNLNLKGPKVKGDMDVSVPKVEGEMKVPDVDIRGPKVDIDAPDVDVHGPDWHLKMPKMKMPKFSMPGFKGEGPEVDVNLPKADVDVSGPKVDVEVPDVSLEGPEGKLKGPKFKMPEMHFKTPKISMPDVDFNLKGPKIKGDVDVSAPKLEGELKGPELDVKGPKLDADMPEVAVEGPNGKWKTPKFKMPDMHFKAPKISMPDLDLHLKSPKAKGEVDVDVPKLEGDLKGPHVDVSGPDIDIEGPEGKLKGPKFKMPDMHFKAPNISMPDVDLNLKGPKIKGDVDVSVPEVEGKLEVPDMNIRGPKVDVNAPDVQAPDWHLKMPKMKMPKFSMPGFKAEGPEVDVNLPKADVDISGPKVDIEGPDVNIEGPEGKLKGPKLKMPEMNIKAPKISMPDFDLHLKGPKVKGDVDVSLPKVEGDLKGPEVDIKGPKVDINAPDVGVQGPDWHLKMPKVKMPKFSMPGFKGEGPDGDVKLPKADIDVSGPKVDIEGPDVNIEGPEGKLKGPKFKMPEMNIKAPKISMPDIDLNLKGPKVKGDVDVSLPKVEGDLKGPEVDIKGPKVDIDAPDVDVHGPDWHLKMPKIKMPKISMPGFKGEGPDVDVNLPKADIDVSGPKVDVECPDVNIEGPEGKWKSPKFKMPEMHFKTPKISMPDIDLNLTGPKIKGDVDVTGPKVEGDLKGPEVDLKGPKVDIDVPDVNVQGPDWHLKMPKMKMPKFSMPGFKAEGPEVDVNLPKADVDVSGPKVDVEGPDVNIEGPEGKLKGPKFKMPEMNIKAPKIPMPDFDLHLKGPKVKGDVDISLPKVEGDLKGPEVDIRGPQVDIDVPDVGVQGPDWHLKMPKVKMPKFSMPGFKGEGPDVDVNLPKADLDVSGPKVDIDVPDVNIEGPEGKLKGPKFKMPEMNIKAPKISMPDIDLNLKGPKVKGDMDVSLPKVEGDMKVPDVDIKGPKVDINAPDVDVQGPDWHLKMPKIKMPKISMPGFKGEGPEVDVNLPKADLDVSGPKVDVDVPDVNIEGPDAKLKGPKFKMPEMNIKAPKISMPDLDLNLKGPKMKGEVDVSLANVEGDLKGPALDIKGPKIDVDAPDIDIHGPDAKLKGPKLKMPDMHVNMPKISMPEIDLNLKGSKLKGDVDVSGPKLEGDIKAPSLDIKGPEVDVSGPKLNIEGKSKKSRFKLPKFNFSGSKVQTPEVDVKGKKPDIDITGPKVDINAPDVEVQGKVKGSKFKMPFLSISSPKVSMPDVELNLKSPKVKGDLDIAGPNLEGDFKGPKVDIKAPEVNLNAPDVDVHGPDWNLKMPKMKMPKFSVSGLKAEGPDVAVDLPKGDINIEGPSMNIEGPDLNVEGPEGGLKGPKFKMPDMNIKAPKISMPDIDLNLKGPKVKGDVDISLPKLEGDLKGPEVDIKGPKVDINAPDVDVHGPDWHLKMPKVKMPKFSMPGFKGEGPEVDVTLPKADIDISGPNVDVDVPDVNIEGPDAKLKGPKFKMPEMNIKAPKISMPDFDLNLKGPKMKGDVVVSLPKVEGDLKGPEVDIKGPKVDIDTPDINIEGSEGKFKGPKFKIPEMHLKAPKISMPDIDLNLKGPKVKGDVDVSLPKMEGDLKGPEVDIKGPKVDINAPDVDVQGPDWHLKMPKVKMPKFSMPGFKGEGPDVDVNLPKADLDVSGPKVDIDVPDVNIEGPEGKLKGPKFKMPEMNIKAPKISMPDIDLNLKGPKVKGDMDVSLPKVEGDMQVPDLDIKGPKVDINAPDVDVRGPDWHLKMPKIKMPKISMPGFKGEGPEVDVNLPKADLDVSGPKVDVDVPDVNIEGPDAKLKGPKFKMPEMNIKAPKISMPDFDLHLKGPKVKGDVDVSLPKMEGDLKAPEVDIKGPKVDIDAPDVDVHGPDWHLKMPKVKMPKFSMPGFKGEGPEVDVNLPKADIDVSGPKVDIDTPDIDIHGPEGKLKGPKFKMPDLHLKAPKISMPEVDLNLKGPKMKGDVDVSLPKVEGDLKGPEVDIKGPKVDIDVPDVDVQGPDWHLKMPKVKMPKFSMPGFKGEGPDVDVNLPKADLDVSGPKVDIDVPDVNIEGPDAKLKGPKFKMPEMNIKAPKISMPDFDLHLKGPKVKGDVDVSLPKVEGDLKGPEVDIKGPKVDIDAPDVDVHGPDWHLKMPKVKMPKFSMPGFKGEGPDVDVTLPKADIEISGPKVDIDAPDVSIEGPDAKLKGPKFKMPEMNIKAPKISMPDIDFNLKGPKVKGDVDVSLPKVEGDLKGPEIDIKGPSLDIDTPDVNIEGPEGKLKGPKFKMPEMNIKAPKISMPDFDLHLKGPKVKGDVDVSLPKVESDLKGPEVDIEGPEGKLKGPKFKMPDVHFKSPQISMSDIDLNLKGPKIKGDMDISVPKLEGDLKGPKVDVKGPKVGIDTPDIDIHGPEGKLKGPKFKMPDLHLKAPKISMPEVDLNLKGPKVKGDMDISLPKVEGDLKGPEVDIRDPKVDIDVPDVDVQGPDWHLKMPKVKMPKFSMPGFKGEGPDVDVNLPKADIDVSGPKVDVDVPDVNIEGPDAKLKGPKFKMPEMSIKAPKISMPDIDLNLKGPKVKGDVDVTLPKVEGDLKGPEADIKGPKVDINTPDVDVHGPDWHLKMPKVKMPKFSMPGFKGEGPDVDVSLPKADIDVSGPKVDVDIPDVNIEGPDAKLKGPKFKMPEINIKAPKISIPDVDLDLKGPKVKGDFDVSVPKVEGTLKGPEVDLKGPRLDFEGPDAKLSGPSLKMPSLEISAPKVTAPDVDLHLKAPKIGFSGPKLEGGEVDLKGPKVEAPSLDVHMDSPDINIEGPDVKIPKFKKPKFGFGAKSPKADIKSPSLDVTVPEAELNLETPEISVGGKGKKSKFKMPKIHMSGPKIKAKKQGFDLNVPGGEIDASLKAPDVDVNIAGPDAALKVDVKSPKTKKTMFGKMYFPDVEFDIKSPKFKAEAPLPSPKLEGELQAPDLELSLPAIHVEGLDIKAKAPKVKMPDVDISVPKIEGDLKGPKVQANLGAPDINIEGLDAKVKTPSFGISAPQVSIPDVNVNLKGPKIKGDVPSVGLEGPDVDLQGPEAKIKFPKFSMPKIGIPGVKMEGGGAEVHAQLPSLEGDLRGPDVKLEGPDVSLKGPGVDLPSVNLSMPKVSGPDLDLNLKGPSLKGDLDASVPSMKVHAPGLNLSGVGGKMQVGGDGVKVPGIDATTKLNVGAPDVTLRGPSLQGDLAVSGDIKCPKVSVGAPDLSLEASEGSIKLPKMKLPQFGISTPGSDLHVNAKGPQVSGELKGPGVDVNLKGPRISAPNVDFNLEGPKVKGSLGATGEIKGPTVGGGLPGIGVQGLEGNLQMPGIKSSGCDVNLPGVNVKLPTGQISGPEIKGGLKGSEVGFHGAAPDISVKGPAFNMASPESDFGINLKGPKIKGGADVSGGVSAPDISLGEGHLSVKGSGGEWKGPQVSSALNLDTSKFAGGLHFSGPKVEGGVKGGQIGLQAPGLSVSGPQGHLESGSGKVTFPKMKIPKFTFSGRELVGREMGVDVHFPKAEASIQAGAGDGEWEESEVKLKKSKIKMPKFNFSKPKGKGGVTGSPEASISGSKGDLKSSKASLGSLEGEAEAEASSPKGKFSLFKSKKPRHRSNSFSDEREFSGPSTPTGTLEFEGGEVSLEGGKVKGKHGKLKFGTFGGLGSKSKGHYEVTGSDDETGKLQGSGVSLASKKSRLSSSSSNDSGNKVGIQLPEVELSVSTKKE

B1: Epsin-2 (protein, UniProt O95208 1-641)
chain: MTTSSIRRQMKNIVNNYSEAEIKVREATSNDPWGPSSSLMTEIADLTYNVVAFSEIMSMVWKRLNDHGKNWRHVYKALTLLDYLIKTGSERVAQQCRENIFAIQTLKDFQYIDRDGKDQGINVREKSKQLVALLKDEERLKAERAQALKTKERMAQVATGMGSNQITFGRGSSQPNLSTSHSEQEYGKAGGSPASYHGSPEASLCPQHRTGAPLGQSEELQPLSQRHPFLPHLGLASRPNGDWSQPCLTCDRAARATSPRVSSELEQARPQTSGEEELQLQLALAMSREVAEQEERLRRGDDLRLQMALEESRRDTVKIPKKKEHGSLPQQTTLLDLMDALPSSGPAAQKAEPWGPSASTNQTNPWGGPAAPASTSDPWPSFGTKPAASIDPWGVPTGATVQSVPKNSDPWAASQQPASSAGKRASDAWGAVSTTKPVSVSGSFELFSNLNGTIKDDFSEFDNLRTSKKTAESVTSLPSQNNGTTSPDPFESQPLTVASSKPSSARKTPESFLGPNAALVNLDSLVTRPAPPAQSLNPFLAPGAPATSAPVNPFQVNQPQPLTLNQLRGSPVLGTSTSFGPGPGVESMAVASMTSAAPQPALGATGSSLTPLGPAMMNMVGSVGIPPSAAQATGTTNPFLL
B2: protein kinase D (PRKD2) (enzyme, UniProt Q9BZL6 1-878)
chain: MATAPSYPAGLPGSPGPGSPPPPGGLELQSPPPLLPQIPAPGSGVSFHIQIGLTREFVLLPAASELAHVKQLACSIVDQKFPECGFYGLYDKILLFKHDPTSANLLQLVRSSGDIQEGDLVEVVLSASATFEDFQIRPHALTVHSYRAPAFCDHCGEMLFGLVRQGLKCDGCGLNYHKRCAFSIPNNCSGARKRRLSSTSLASGHSVRLGTSESLPCTAEELSRSTTELLPRRPPSSSSSSSASSYTGRPIELDKMLLSKVKVPHTFLIHSYTRPTVCQACKKLLKGLFRQGLQCKDCKFNCHKRCATRVPNDCLGEALINGDVPMEEATDFSEADKSALMDESEDSGVIPGSHSENALHASEEEEGEGGKAQSSLGYIPLMRVVQSVRHTTRKSSTTLREGWVVHYSNKDTLRKRHYWRLDCKCITLFQNNTTNRYYKEIPLSEILTVESAQNFSLVPPGTNPHCFEIVTANATYFVGEMPGGTPGGPSGQGAEAARGWETAIRQALMPVILQDAPSAPGHAPHRQASLSISVSNSQIQENVDIATVYQIFPDEVLGSGQFGVVYGGKHRKTGRDVAVKVIDKLRFPTKQESQLRNEVAILQSLRHPGIVNLECMFETPEKVFVVMEKLHGDMLEMILSSEKGRLPERLTKFLITQILVALRHLHFKNIVHCDLKPENVLLASADPFPQVKLCDFGFARIIGEKSFRRSVVGTPAYLAPEVLLNQGYNRSLDMWSVGVIMYVSLSGTFPFNEDEDINDQIQNAAFMYPASPWSHISAGAIDLINNLLQVKMRKRYSVDKSLSHPWLQEYQTWLDLRELEGKMGERYITHESDDARWEQFAAEHPLPGSGLPTDRDLGGACPPQDHDMQGLAERISVL
B3: mannose 6-phosphate receptor (receptor, UniProt P20645 27-277)
chain: TEEKTCDLVGEKGKESEKELALVKRLKPLFNKSFESTVGQGSDTYIYIFRVCREAGNHTSGAGLVQINKSNGKETVVGRLNETHIFNGSNWIMLIYKGGDEYDNHCGKEQRRAVVMISCNRHTLADNFNPVSEERGKVQDCFYLFEMDSSLACSPEISHLSVGSILLVTFASLVAVYVVGGFLYQRLVVGAKGMEQFPHLAFWQDLGNLVADGCDFVCRSKPRNVPAAYRGVGDDQLGEESEERDDHLLPM

What follows are molecules tested against APEX2-fused 5HT2A serotonin receptor (UniProt P28223) (assay: proximity labelling; high-input pipeline: APEX2 fused to 5HT2A in live HEK293T cells (10 cm dish); 0.1 µM 5HT for 0, 1, 5, 10 and 30 min; 500 µM biotin phenol 30 min, H2O2 45 sec; automated streptavidin enrichment, DIA-MS; hits: adjusted p-value < 0.05 over the time course and FC > 1.5).

binding | Molecule
binds | Annexin A2 (from UniProt P07355 1-339)
binds | BMP-2 inducible kinase (from UniProt Q9NSY1 1-1161) (enzyme)
binds | Epsin-1 (from UniProt Q9Y6I3 1-576)
binds | G protein-coupled receptor kinase 2 (from UniProt P25098 1-689) (enzyme)
binds | S100-A10 (from UniProt P60903 1-97)
binds | diacylglycerol kinase zeta (from UniProt Q13574 1-928) (enzyme)
binds | protein kinase C isoform PKCA (from UniProt P17252 1-672) (enzyme)
binds | protein kinase C isoform PKCD (from UniProt Q05655 1-676) (enzyme)
binds | protein kinase C isoform PKCQ (from UniProt Q04759 1-706) (enzyme)
binds | B1
binds | B2
binds | B3

What follows are molecules tested against APEX2-fused 5HT2A serotonin receptor (UniProt P28223) (assay: proximity labelling; low-input pipeline: 5HT2A-APEX2 HEK293T cells in 6-well plates, non-targeting control and CRISPR knockout (ANXA2, S100A10) cells; 0.1 µM 5HT for 0, 1 and 30 min; automated streptavidin enrichment, DIA-MS).

binding | Molecule
binds | Annexin A2 (from UniProt P07355 1-339)
binds | S100-A10 (from UniProt P60903 1-97)

Molecule | binding
AHNAK (from UniProt Q09666 1-5890) | binds
